According to patent US20260008811A1 (ESPIKEM S.R.L., priority 2019, published 2026):

Assay: general procedure: Fmoc solid-phase peptide synthesis; Rink-Amide AM
Details: whole synthesis, analytical HPLC

## H3C-CO-DAsn-DVal-DVal-DLys-NH2 (NVVK; N-acetyl, C-amide, D-amino acids)
  final HPLC purity: 98%
